Laboratory results taken from patent US5449592A, “Silver halide color photographic light sensitive material for color proof and method for preparing color proof using the same” (Konica Corporation, priority 1988, dated 1995).

assay: Gamma variation ratio of yellow couplers (inhibition of color development); conditions: relative to standard sample with coupler YS
Procedure: The gamma variation ratio is determined by the following method.
(1) Preparation of the standard sample
Into 150 ml of ethyl acetate 60 g of yellow coupler represented by the following formula (YS) and 20 g of tricresil phosphate are aded and dissolved. The solution is mixed with 1 liter of 5% aqueous solution of gelatin containing 10 ml of 5% aqueous solution of Alkanol B (alkyl naphthalenesulfonate, made by du Pont Co.) and dispersed for making a dispersion using an ultrasonic disperser. The dispersion thus obtained is added to a silver iodobromide emulsion containing 6 mol % of silver iodide so that the amount of the yellow coupler is 0.3 mol per mol of silver in the emulsion. To the emulsion 1.2 g of 1,2-bis(vinylsulfonyl)ethane is added per gram of gelatin as a hardner. The emulsion is coated on a transparent cellulose acetate film in an amount of 2 g per sq. meter in terms of silver.
The processed samples each is subjected to densitometry with red light by Konica Densitometer PDA-65 and a chracteriastics curve thereof is drawn. The gamma value is determined by the gradient of the line connecting the points of the density of 0.3 and 0.8 on the characteristic curve. The gamma variation ratio γv is defined by the following equation, in which γt is the gamma value of the sample containing the coupler to be tested and γs is the gamma value of the standard sample.
The yellow coupler used in the invention should have a γv value of not more than 0.1, preferably not more than 0.02.
Samples of positive light-sensitive material No. 41 to 49 were prepared in the same manner as in Sample 18 of Example 2 of the specification except that yellow coupler Y-8 was replaced by the following comparative or inventive couplers. On the other hand, the gamma variation rate γv of the couplers were determined the foregoing method.

Row | Compound | gamma variation ratio γv
1 | CCC(C)(C)c1ccc(OCCCC(=O)Nc2ccc(Cl)c(NC(=O)C(C(=O)C(C)(C)C)n3nnc4ccc(C(=O)Oc5ccccc5)cc43)c2)c(C(C)(C)CC)c1 (centres unmarked) [CY-1, reference compound] | -0.30
2 | CCC(C)(C)c1ccc(OCCCC(=O)Nc2ccc(Cl)c(NC(=O)C(C(=O)C(C)(C)C)n3c(=O)n(Cc4ccccc4)n(-c4ccccc4)c3=O)c2)c(C(C)(C)CC)c1 (centres unmarked) [Y-1] | 0
3 | CCC(C)(C)c1ccc(OCCCC(=O)Nc2ccc(Cl)c(NC(=O)C(Oc3ccc(S(=O)(=O)c4ccc(OCc5ccccc5)cc4)cc3)C(=O)C(C)(C)C)c2)c(C(C)(C)CC)c1 (centres unmarked) [Y-8] | 0
4 | CCC(C)(C)c1ccc(OCCCC(=O)Nc2ccc(Cl)c(NC(=O)C(Sc3nnnn3-c3ccc(C(=O)O)cc3)C(=O)C(C)(C)C)c2)c(C(C)(C)CC)c1 (centres unmarked) [Y-61] | 0
5 | CCC(C)(C)c1ccc(OCCCC(=O)Nc2ccc(Cl)c(NC(=O)C(C(=O)C(C)(C)C)n3c(SCC(=O)O)nc4ccccc43)c2)c(C(C)(C)CC)c1 (centres unmarked) [Y-62] | 0
6 | CCC(C)(C)c1ccc(OCCCC(=O)Nc2ccc(Cl)c(NC(=O)C(OCC(=O)O)C(=O)C(C)(C)C)c2)c(C(C)(C)CC)c1 (centres unmarked) [Y-63] | 0
7 | CCC(C)(C)c1ccc(OCCCC(=O)Nc2ccc(Cl)c(NC(=O)C(SCC(=O)O)C(=O)C(C)(C)C)c2)c(C(C)(C)CC)c1 (centres unmarked) [Y-64] | 0
8 | CCC(C)(C)c1ccc(OCCCC(=O)Nc2ccc(Cl)c(NC(=O)C(C(=O)C(C)(C)C)n3cccn3)c2)c(C(C)(C)CC)c1 (centres unmarked) [Y-65] | 0
